Test [1] deals with T1, human Follicle Stimulating Hormone Receptor (FSHR) (human) (UniProt P23945).
T1 sequence: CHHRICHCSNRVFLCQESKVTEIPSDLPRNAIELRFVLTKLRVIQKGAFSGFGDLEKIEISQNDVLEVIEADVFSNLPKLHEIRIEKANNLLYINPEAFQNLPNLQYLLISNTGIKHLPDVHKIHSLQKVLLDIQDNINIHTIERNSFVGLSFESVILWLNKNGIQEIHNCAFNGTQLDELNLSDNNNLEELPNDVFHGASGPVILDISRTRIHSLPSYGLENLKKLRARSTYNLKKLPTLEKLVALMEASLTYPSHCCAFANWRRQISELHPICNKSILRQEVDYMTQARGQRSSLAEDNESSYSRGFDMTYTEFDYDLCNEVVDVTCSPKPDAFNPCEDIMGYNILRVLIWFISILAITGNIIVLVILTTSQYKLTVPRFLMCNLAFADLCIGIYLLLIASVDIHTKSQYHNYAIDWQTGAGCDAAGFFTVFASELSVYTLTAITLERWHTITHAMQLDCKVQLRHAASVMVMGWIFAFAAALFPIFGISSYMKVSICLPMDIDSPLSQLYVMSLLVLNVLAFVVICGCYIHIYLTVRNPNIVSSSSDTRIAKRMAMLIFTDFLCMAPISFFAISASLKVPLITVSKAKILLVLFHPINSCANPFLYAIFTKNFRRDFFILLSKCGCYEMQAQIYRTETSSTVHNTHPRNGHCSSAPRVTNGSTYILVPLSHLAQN
Put plainly: flow cytometry, K562-Fshr cells.

In test [2] the target is T1, human Follicle Stimulating Hormone Receptor (FSHR) (human). The experiment in a line: flow cytometry, K562-Fshr (GFP+) against K562 (GFP-), anti-human IgG PE.

One molecule from patent US20210340263A1 can be followed below.

Results are given in words; binding and its absence hold for the method and conditions named. Some binding calls cover weakened binding; strength is not graded here.

B1: humanized 9H11 monoclonal antibody (antibody, human IgG1, kappa, V domains shown)
VH: EVQLVESGGGLVQPGGSLRLSCSFSGFSLSTSGMGVGWIRQAPGKGLEWVAHIWWDDDKRYNPALKSRFTLSVDRSKNTLYLQMNSLRAEDTATYYCVQINYGNYRFDNWGHGTLVTVSS
VL: DIQMTQSPSSLSASVGDRVTISCRASESVDNYGISFLNWFQQKPGKAPKLLIYAASNQRSGVPSRFSGSGSGTDFTLTISSLQPEDFATYFCQQSKEVPWTFGQGTKVEIKR
For the molecule B1, the binding entry in test [1] and in test [2] was “binds” throughout.
